# Test results published in PubChem BioAssay AID540256 (National Center for Advancing Translational Sciences (NCATS), 2011).
# Screen size: about 300,000 compounds; about 3,700 (1.2%) were called active. Inconclusive results, whose numbers are uncertain, are shown with a selection of clear calls. Calls come from the whole dose curve; tested in HEK293 cells. A potency beside an inconclusive call is a rough fit, not a confirmed value.
# Test: qHTS for Inhibitors of binding or entry into cells for Lassa Virus; note: nearly all actives have a fitted effect of over 50% in size
# Conditions: Lassa virus pseudotype entry inhibition, cell reporter; activity change, negative = inhibition: at 37.9 µM (top of the series) unless noted
# % is set by controls: 0 for no effect and ±100 for the full control effect; potency is the fitted concentration of half-maximal effect.
SMILES,"activity change, negative = inhibition",Potency
COc1ccc(NS(=O)(=O)c2cc(OC)ccc2NC(=O)c2cc(C)oc2C)cc1,inactive: -24.5%,
CCn1c(-c2nonc2N)nc2c(N3CCCC3)nccc21,,"inconclusive: 19.9 µM [inhibitor, partial curve, poor fit]"
CC(C)C(=O)Nc1ccc(NC(=O)c2ccccn2)cn1,,"inconclusive: 35.5 µM [inhibitor, single point]"
CCOc1ccc2nc(N3C(=O)CNC3=S)sc2c1,,"inconclusive: 12.6 µM [inhibitor, single point]"
Cc1c(C(=O)NCCN2CCOCC2)oc2ccc(S(=O)(=O)N3CCCCCC3)cc12,inactive: -23.2%,
O=C/C(=C\Nc1ccccn1)c1nc2cc(Cl)ccc2o1,,"inconclusive: 35.5 µM [inhibitor, single point]"
CCN(CC(=O)Nc1sc2c(c1C#N)CCC(C)C2)Cc1nc2ccccc2c(=O)[nH]1 (centres undefined),inactive: 9.53% [at 46.1 µM],
CCC(C)NC(=O)C1CCCN1S(=O)(=O)c1ccc(Cl)cc1 (centres undefined),,"inconclusive: 4.11 µM [inhibitor, full curve, poor fit]"
Cc1cc(C)cc(Oc2nn[nH]n2)c1,,"inconclusive: 0.13 µM [activator, full curve, poor fit]"
O=S(=O)(CCNCc1ccco1)NCc1ccccc1,,"inconclusive: 17.7 µM [activator, partial curve, poor fit]"
CS(=O)(=O)c1ncc(Cl)c(C(=O)Nc2ccc(N3CCOCC3)cc2)n1,,"inconclusive: 7.3 µM [inhibitor, partial curve, poor fit]"
CCCCOc1ccc(-c2ncc(C(=O)O)c(C)n2)cc1,,"inconclusive: 17.8 µM [inhibitor, partial curve, poor fit]"
CCCCn1c(=O)[nH]c(=O)c2c1nc(-c1ccsc1)n2Cc1ccccc1,,"inconclusive: 12.6 µM [inhibitor, single point]"
CCCC(=O)Nc1nnc2n1CCS2,inactive: -26% [at 46.1 µM],
C=CCn1c(SC(F)F)nc2scc(-c3ccco3)c2c1=O,,"inconclusive: 2.51 µM [inhibitor, full curve]"
CC(=O)c1ccc(OCC(=O)c2ccc(-c3ccccc3)cc2)cc1,,"inconclusive: 16.4 µM [inhibitor, single point]"
Cc1cc(C(=O)CSc2nc3ccc(Cl)cc3[nH]2)c(C)n1CC1CCCO1 (centres undefined),,"inconclusive: 28.2 µM [inhibitor, single point]"
Cc1cccc(Sc2c([N+](=O)[O-])ncn2C)c1,,"inconclusive: 32.6 µM [inhibitor, single point]"
Cc1nc(N2CCOCC2)sc1C(=O)NN,,"inconclusive: 11.2 µM [inhibitor, partial curve, poor fit]"
COC(=O)c1cc2ccccc2c(-c2c(O)ccc3ccccc23)c1O,,"inconclusive: 0.631 µM [activator, single point]"
COc1ccc2[nH]c(=O)c(CNc3ccc(C)c(C)c3)cc2c1,,"inconclusive: 35.5 µM [inhibitor, single point]"
O=C(CNC(=O)c1ccccc1)OC(C(=O)Nc1cc(C(F)(F)F)ccc1Cl)c1ccccc1 (centres undefined),,"inconclusive: 20 µM [inhibitor, single point]"

# Look-ups from the entries so far:
# In Potency, `CCn1c(-c2nonc2N)nc2c(N3CCCC3)nccc21` shows inconclusive: 19.9 µM [inhibitor, partial curve, poor fit]
# In Potency, `CC(C)C(=O)Nc1ccc(NC(=O)c2ccccn2)cn1` shows inconclusive: 35.5 µM [inhibitor, single point]

# Carrying on:

SMILES,"activity change, negative = inhibition",Potency
CN1C(=O)C(=Cc2ccc(OCC(=O)Nc3ccccc3)cc2)C(=O)N(C)C1=O,inactive: -11.4%,
O=S1(=O)CC(N2CCCCC2)CN1Cc1ccc(F)cc1 (centres undefined),,"inconclusive: 5.6 µM [inhibitor, full curve, poor fit]"
CCOC(=O)c1sc(NC(=O)c2cccc(S(=O)(=O)N(CC)CC)c2)cc1C,,"inconclusive: 2.06 µM [inhibitor, full curve]"
CCCCCn1c(=O)[nH]c2cc(C(=O)N3CCN(c4cccc(C)c4)C(C)C3)ccc2c1=O (centres undefined),,"inconclusive: 5.62 µM [activator, partial curve, poor fit]"
COCCNC(=O)C1Cc2c(ccc3ccccc23)O1 (centres undefined),inactive: 8.04%,
CC(=O)c1ccc(OCC(=O)Nc2cccc(S(=O)(=O)N3CCCC3)c2)cc1,,"inconclusive: 11.2 µM [inhibitor, single point]"
N#Cc1cccc(NC(=O)CC2CCCC2)c1,inactive: -16.9% [at 46.1 µM],
CSc1ccc(-c2nc3ccc(C)cn3c2Nc2ccccc2C)cc1,inactive: -5.84% [at 46.1 µM],
CCOc1cc(/C=C2/C(=N)N3OC(C)=CC3=NC2=O)ccc1OCCOc1ccccc1,,"inconclusive: 11.6 µM [inhibitor, partial curve, poor fit]"
CCc1nc(N2CCN(C(=O)c3ccco3)CC2)c2oc3ccccc3c2n1,,"inconclusive: 4.61 µM [inhibitor, partial curve, poor fit]"
COc1cc(OC)cc(C(=O)Nc2nc3ccccc3[nH]2)c1,,"inconclusive: 3.55 µM [activator, single point]"
Cc1ccc2cc(CN(Cc3nnnn3C3CCCC3)C3CCCCC3)c(=O)[nH]c2c1C,inactive: 18.3%,
Cn1c(=O)c2c(ncn2CC(=O)N/N=C/C=C/c2ccco2)n(C)c1=O,inactive: -17.1%,
CN(C)N1C(N)=C(C#N)C(c2cccc([N+](=O)[O-])c2)C2=C1CC(C)(C)CC2=O (centres undefined),,"inconclusive: 35.5 µM [activator, single point]"
CCN(CC)c1ccc(N=Cc2ccc([N+](=O)[O-])o2)cc1,,"inconclusive: 32.6 µM [inhibitor, single point]"
Cc1cccc(NC(=S)NCCc2ccccc2)c1C,inactive: -2.33%,
COc1ccc(NC(=O)c2ccc(NS(=O)(=O)c3cccc4cccnc34)cc2)cc1,,"inconclusive: 20 µM [inhibitor, single point]"
CCN(CC)C(=O)Oc1ccc2c(=O)c(-c3ccc(OC)cc3)coc2c1,inactive: -5.91%,
C=CCNC(=O)/C(C#N)=C/c1c(N2CC(C)OC(C)C2)nc2ccccn2c1=O (centres undefined),,"inconclusive: 14.1 µM [inhibitor, single point]"
CCOc1ccc(OCc2cccc(C(=O)N3CCCC3)c2)cc1,,"inconclusive: 29.1 µM [inhibitor, single point]"
S=C(c1ccc(-c2ccccc2)o1)N1CCCCC1,,"inconclusive: 35.5 µM [inhibitor, single point]"
COc1ccc(-c2cc(C)nc3c(-c4ccc(OC)c(OC)c4)c(C)nn23)cc1,,"inconclusive: 7.94 µM [inhibitor, partial curve, poor fit]"
